In PMC3890537:
Results are given in words; binding and its absence hold for the method and conditions named. Binding can be weak; no strength is given.

Key:
Assay in all cases: two-hybrid; MatchMaker system (Clontech); BnaCBLs in pGBKT7, BnaCIPKs or BnaCIPK3 fragments in pGADT7; yeast strain AH109; growth at 30°C on SD-LTHA (only growth on SD-LTHA scored as interaction), dilution series and X-gal staining
BnaCBL4 (Brassica napus) = target: BnaCBL4 (Brassica napus)
BnaCBL9 (Brassica napus) = BnaCBL9 (Brassica napus) (UniProt V9LYC6)
[1] = target: BnaCBL10 (Brassica napus) (UniProt V9LYF0)
BnaCBL1 (Brassica napus) = BnaCBL1 (Brassica napus) (UniProt V9LYC3)

| binding (BnaCBL4 (Brassica napus)) | binding (BnaCBL9 (Brassica napus)) | binding [1] | binding (BnaCBL1 (Brassica napus)) | Substance |
| --- | --- | --- | --- | --- |
| binds | binds | binds |  | BnaCIPK15 (from UniProt V9LYC8) |
| binds | binds | binds | binds weakly | BnaCIPK26 (from UniProt V9LY70) |
| binds | binds | binds | binds | BnaCIPK10 (from UniProt V9LY51) |
| binds | binds | no binding | binds weakly | BnaCIPK7 (from UniProt A0A078HQE5) |

Continued, substance first:

| Substance | binding (BnaCBL4 (Brassica napus)) | binding (BnaCBL9 (Brassica napus)) | binding [1] | binding (BnaCBL1 (Brassica napus)) |
| --- | --- | --- | --- | --- |
| BnaCIPK25 (from UniProt V9MHQ9) | binds weakly | no binding | no binding | binds |
| BnaCIPK5 (from UniProt V9LYF7) | binds | binds | binds | binds |
| BnaCIPK11 (from UniProt V9LYK3) | binds |  | binds weakly | binds |
| BnaCIPK12 (from UniProt V9LY68) | binds weakly |  | no binding |  |
| BnaCIPK8 (from UniProt V9LY73) | no binding | no binding | no binding | binds weakly |
| BnaCIPK1 (from UniProt V9LYF3) | binds | binds weakly | no binding | binds |
| BnaCIPK9 (from UniProt V9LYD1) | binds | binds | no binding | binds |
| BnaCIPK17 (from UniProt V9LYF6) | binds | binds | binds | binds |
| BnaCIPK24 (from UniProt V9LYK4) | binds | binds | no binding | binds weakly |
| BnaCIPK6 (from UniProt V9LY54) | binds | binds | no binding | binds |
